Measured values as given in the supplement of paper PMC10849652.
The list shows a part of the results.

The chains behind the UniProt entries cited, without tags or fusion partners. Where a name states a change or a piece, a line headed by the entry shows the natural chain unless it says otherwise.
UniProt P62316, whole entry, looked up: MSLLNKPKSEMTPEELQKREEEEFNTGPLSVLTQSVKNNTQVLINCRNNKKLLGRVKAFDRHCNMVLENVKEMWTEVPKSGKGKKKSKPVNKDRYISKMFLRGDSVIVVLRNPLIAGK
UniProt P09234, whole entry, looked up: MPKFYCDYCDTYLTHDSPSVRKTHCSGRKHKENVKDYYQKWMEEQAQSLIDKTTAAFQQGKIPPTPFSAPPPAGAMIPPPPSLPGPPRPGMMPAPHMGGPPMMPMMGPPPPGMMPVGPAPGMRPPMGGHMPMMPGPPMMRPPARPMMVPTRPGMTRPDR
UniProt Q8N5G0: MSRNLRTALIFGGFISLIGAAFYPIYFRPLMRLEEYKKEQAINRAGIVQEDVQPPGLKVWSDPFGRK
UniProt Q96H20: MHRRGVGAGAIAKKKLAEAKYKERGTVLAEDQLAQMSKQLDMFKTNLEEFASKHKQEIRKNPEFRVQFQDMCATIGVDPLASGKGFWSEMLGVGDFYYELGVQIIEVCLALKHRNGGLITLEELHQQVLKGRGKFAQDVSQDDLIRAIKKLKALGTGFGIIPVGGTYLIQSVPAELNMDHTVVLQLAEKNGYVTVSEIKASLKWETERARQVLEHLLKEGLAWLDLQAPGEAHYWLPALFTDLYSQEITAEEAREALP
UniProt P19634, whole entry, looked up: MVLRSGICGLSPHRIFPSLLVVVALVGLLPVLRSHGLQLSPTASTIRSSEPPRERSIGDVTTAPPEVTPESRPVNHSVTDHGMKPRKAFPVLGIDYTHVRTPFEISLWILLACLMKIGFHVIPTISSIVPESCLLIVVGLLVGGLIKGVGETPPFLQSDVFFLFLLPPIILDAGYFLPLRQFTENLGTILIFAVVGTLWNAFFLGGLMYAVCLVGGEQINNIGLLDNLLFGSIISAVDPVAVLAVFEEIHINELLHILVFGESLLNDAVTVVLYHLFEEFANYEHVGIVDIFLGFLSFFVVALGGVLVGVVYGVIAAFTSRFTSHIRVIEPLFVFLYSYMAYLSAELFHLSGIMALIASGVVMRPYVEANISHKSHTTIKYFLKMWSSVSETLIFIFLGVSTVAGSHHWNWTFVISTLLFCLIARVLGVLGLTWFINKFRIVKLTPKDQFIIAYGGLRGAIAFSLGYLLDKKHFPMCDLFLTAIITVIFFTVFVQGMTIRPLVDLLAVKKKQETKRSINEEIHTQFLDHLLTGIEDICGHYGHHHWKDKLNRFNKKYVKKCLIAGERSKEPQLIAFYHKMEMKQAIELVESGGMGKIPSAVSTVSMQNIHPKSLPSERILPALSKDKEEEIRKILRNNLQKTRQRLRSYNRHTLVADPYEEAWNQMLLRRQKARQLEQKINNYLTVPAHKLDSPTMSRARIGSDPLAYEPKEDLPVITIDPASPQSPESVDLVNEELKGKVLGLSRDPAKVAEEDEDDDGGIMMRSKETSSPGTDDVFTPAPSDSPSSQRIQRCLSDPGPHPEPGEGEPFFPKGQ
UniProt Q13596, whole entry, looked up: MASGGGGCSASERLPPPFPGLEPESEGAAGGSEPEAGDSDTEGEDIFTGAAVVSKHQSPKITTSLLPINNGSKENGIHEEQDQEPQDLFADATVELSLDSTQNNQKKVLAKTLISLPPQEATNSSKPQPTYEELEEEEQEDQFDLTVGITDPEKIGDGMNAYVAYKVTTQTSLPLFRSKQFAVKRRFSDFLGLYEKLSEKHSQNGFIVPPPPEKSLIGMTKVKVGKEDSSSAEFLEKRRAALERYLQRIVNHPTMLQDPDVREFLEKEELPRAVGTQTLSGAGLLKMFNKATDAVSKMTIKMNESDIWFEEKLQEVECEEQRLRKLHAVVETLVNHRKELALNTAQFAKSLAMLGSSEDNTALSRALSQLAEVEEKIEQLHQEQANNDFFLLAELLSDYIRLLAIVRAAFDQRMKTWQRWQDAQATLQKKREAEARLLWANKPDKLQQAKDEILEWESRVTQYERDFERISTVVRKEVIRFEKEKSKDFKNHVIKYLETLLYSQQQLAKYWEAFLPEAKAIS
UniProt P09012, whole entry, looked up: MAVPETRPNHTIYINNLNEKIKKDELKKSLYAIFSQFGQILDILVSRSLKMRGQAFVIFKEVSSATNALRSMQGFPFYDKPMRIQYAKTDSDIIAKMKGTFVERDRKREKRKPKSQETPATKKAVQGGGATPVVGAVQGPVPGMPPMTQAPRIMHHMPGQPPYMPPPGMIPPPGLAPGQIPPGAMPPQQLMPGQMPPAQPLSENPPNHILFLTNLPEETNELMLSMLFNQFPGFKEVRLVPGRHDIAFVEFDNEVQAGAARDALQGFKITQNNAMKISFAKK
UniProt Q9H2G2: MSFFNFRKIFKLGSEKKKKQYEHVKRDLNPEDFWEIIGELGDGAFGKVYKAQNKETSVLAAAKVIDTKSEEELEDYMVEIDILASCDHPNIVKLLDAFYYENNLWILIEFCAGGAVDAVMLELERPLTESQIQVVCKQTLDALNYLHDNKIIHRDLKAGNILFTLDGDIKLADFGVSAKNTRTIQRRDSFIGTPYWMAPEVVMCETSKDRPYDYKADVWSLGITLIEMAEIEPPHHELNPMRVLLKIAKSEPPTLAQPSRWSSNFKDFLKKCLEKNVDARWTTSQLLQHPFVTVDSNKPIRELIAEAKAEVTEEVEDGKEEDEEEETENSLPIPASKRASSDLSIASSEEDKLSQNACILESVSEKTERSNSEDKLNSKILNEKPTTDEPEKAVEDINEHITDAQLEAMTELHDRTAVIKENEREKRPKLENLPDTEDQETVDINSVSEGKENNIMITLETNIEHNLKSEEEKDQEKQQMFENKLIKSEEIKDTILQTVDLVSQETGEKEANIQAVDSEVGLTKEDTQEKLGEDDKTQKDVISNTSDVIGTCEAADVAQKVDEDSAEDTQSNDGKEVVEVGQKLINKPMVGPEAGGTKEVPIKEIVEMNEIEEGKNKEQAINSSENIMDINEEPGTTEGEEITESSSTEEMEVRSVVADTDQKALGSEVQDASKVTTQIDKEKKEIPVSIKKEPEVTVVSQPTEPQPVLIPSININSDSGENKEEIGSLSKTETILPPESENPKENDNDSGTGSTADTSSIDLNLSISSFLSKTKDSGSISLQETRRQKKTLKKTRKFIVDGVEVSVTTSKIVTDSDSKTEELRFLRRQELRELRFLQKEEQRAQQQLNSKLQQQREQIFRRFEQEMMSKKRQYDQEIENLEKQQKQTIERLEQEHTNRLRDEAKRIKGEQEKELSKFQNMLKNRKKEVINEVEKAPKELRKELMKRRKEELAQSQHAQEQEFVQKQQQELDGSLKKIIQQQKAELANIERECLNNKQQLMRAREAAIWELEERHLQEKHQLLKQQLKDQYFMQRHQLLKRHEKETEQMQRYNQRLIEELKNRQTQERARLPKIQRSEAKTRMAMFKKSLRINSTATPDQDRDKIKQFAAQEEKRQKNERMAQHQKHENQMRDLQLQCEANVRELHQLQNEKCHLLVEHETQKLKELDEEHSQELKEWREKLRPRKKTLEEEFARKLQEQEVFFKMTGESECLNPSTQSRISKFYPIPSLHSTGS
UniProt Q16637, whole entry, looked up: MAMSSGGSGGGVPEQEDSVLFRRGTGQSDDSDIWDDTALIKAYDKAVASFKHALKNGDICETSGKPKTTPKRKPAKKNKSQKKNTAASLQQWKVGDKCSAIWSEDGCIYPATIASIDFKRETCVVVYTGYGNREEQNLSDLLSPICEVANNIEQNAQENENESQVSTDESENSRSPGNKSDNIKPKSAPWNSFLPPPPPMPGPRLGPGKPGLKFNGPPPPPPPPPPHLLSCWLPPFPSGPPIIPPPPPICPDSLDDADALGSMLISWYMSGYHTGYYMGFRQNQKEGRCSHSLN
UniProt Q96KF7: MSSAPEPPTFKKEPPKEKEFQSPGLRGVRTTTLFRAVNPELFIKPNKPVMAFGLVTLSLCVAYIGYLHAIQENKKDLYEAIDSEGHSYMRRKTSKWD
UniProt O60493, whole entry, looked up: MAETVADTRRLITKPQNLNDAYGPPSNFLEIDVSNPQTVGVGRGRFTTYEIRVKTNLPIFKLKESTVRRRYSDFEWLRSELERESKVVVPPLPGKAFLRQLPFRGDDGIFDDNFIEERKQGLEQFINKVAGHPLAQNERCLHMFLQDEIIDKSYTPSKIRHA
UniProt Q0VAQ4: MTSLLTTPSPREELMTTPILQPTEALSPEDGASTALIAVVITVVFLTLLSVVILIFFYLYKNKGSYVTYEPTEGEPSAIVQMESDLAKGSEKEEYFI
UniProt P18583: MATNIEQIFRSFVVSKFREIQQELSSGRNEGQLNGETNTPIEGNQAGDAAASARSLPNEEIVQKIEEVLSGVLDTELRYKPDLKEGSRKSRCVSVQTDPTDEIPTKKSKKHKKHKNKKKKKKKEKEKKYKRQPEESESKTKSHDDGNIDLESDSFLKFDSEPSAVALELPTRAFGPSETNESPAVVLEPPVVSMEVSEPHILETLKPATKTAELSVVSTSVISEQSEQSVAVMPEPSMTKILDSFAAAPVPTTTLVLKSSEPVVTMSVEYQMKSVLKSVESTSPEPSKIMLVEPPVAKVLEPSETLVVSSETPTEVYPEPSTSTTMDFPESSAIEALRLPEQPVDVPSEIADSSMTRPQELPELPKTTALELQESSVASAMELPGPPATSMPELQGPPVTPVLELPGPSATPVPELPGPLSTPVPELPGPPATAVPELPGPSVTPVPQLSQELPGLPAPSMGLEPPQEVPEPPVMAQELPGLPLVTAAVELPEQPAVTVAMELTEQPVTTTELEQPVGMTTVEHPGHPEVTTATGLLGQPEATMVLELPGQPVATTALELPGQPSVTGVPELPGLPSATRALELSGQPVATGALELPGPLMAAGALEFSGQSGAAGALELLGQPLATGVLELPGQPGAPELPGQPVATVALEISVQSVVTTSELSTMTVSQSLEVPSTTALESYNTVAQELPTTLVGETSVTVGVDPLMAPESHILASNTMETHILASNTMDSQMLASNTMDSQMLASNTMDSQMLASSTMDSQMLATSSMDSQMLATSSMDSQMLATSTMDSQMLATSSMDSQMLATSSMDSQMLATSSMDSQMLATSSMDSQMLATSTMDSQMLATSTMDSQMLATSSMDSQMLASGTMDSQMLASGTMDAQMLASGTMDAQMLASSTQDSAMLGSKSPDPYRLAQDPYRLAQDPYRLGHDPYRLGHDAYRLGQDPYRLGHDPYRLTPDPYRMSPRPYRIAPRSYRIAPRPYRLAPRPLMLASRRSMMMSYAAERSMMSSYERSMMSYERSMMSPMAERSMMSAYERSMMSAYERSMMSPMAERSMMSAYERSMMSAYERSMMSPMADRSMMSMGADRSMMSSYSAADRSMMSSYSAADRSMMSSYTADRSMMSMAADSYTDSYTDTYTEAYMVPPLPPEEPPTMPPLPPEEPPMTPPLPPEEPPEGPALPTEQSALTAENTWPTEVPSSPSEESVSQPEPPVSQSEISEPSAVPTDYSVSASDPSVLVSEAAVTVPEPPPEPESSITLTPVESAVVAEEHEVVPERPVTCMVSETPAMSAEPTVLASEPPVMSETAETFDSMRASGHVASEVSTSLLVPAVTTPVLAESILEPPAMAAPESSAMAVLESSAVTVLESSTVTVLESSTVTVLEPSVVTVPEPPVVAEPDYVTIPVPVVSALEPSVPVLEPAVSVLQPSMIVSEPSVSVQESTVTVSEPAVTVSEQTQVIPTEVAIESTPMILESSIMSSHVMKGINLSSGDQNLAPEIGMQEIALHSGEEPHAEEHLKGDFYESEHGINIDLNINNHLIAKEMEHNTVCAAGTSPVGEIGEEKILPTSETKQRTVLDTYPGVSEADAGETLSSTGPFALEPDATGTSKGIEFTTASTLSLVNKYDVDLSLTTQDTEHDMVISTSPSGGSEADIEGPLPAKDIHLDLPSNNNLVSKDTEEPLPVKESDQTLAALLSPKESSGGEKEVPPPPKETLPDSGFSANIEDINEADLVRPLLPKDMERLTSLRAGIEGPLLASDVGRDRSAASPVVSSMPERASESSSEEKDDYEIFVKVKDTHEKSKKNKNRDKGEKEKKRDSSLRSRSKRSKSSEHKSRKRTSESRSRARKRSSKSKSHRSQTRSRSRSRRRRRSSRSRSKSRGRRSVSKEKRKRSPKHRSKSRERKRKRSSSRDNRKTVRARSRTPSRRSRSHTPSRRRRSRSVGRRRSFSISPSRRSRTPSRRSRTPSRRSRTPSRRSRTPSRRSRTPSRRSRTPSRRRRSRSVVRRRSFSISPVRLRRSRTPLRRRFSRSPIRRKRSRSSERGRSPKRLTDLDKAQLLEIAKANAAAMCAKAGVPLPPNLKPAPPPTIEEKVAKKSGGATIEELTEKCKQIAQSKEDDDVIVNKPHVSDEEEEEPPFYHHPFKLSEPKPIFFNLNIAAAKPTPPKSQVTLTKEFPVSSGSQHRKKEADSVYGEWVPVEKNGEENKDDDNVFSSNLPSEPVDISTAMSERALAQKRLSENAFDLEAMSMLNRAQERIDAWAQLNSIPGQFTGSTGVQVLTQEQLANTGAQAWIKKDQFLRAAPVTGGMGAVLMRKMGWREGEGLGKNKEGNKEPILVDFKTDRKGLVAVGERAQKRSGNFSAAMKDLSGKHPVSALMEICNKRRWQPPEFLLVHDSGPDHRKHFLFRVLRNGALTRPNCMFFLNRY

Legend:
Assay in all cases: log2 fold change, soluble protein after heating vs DMSO (PISA); higher = thermal stabilisation; K562 cells, 10 uM, 30 min; active = over 0.2 and 3.5 SD of the protein, either way, in both replicates (recomputed)
[1] = compound: NC(=O)Nc1cc(-c2cccc(F)c2)sc1C(=O)N[C@H]1CCCNC1
Summary of the method: (§1)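 Values are thermal stability changes relative to control samples and are taken from duplicates. They are stated as log2 fold changes. Before quantification by TMTpro 16plex LC-MS/MS with equalised channel sums, K562 cells at 2×10^6 cells/mL were treated with 10 μM compound for 30 min, heated in aliquots for 3 min across 48°C-58°C, pooled, extracted in PBS with 0.5% NP-40 at 4°C, and centrifuged at 21,000xg for 90 min to give the soluble supernatant.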

[2] = compound: NC(=O)c1cnc(N[C@@H]2CCCC[C@@H]2N)nc1Nc1cccc(-n2nccn2)c1
Summary of the method: as §1

[3] = compound: NC1(c2ccc(-c3nc4ccn5c(=O)[nH]nc5c4cc3-c3ccccc3)cc2)CCC1
Summary of the method: as §1

[4] = compound: NCC(=O)Nc1ccc(-n2nc(C(F)(F)F)cc2-c2ccc3c(ccc4ccccc43)c2)cc1
Summary of the method: as §1

entinostat = compound: Nc1ccccc1NC(=O)c1ccc(CNC(=O)OCc2cccnc2)cc1 [entinostat]
Summary of the method: as §1

vorinostat = compound: O=C(CCCCCCC(=O)Nc1ccccc1)NO [vorinostat]
Summary of the method: as §1

citarinostat = compound: O=C(CCCCCCNC(=O)c1cnc(N(c2ccccc2)c2ccccc2Cl)nc1)NO [citarinostat]
Summary of the method: as §1

silmitasertib = compound: O=C(O)c1ccc2c(c1)nc(Nc1cccc(Cl)c1)c1ccncc12 [silmitasertib]
Summary of the method: as §1

[5] = compound: O=C1NC(=O)C(c2cnc3ccccn23)=C1c1cn2c3c(cc(F)cc13)CN(C(=O)N1CCCCC1)CC2
Summary of the method: as §1

[6] = compound: c1cc(OCCN2CCCCC2)cc(-c2n[nH]c3ccc(-c4nnc[nH]4)cc23)c1
Summary of the method: as §1

| Target | log2 fold change [1] | log2 fold change [2] | log2 fold change [3] | log2 fold change [4] | log2 fold change (entinostat) | log2 fold change (vorinostat) | log2 fold change (citarinostat) | log2 fold change (silmitasertib) | log2 fold change [5] | log2 fold change [6] |
| --- | --- | --- | --- | --- | --- | --- | --- | --- | --- | --- |
| SNX11 (UniProt Q9Y5W9) | inactive: -0.052 | inactive: -0.277 | active: -0.378 | inactive: -0.052 | inactive: 0.097 | inactive: 0 | inactive: 0.233 | inactive: 0.025 | inactive: -0.023 | inactive: -0.072 |
| SNRPD2 (UniProt P62316) | inactive: 0.007 | inactive: 0.006 | inactive: 0.03 | inactive: 0.03 | inactive: -0.051 | inactive: -0.003 | inactive: 0.004 | inactive: 0.053 | inactive: 0.056 | inactive: 0.049 |
| SNCA (UniProt P37840) | inactive: 0.023 | inactive: -0.015 | inactive: 0.024 | inactive: -0.027 | inactive: -0.024 | inactive: 0.07 | inactive: 0.042 | inactive: -0.023 | inactive: -0.022 | inactive: -0.048 |
| SNRPC (UniProt Q5TAL2) | inactive: 0.108 | inactive: 0 | inactive: 0.083 | inactive: 0.178 | inactive: 0.075 | inactive: 0.14 | inactive: 0.068 | inactive: -0.039 | inactive: -0.098 | inactive: 0.106 |
| SNRPC (UniProt P09234) | inactive: -0.004 | inactive: 0.1 | inactive: 0.136 | inactive: 0.068 | inactive: 0.026 | inactive: -0.112 | inactive: 0.021 | inactive: 0.041 | inactive: 0.014 | inactive: -0.044 |
| SNRNP200 (UniProt O75643) | inactive: 0.017 | inactive: -0.029 | inactive: 0.01 | inactive: -0.026 | inactive: -0.051 | inactive: -0.056 | inactive: -0.025 | inactive: 0.081 | inactive: 0.041 | inactive: -0.063 |
| SMIM20 isoform 2 (UniProt Q8N5G0) | inactive: -0.056 | inactive: -0.032 | inactive: 0 | inactive: 0.002 | inactive: 0.031 | inactive: 0.057 | inactive: -0.004 | inactive: -0.01 | inactive: -0.154 | inactive: -0.049 |
| SNF8 (UniProt Q96H20) | inactive: -0.008 | inactive: -0.049 | inactive: -0.04 | inactive: -0.01 | inactive: -0.005 | inactive: 0.02 | inactive: 0.009 | inactive: 0.016 | inactive: 0.015 | inactive: -0.017 |
| SLC9A1 (UniProt P19634) | inactive: -0.019 | inactive: -0.012 | inactive: 0 | inactive: 0.195 | inactive: -0.054 | inactive: 0.026 | inactive: -0.089 | inactive: 0.095 | inactive: -0.11 | inactive: -0.013 |
| SNX6 (UniProt Q9UNH7) | inactive: -0.027 | active: -0.376 | active: -0.403 | inactive: 0.007 | inactive: 0.075 | inactive: 0.15 | inactive: 0.064 | inactive: -0.142 | inactive: -0.003 | inactive: -0.087 |
| SOAT1 (UniProt P35610) | inactive: -0.073 | inactive: -0.049 | inactive: -0.171 | inactive: -0.045 | inactive: 0.029 | inactive: -0.063 | inactive: 0.112 | inactive: 0.084 | inactive: -0.098 | inactive: -0.185 |
| SNX1 (UniProt Q13596) | inactive: -0.01 | active: -0.375 | active: -0.336 | inactive: 0.011 | inactive: 0.121 | inactive: 0.147 | inactive: 0.054 | inactive: -0.062 | inactive: -0.04 | inactive: -0.094 |
| SNRPA (UniProt P09012) | inactive: 0.016 | inactive: 0.04 | inactive: 0.178 | inactive: 0.047 | inactive: -0.113 | inactive: -0.12 | inactive: -0.062 | inactive: 0.077 | inactive: 0.18 | inactive: -0.047 |
| SMC2 (UniProt O95347) | inactive: -0.058 | inactive: 0.001 | inactive: -0.039 | inactive: -0.037 | inactive: 0.045 | inactive: 0.018 | inactive: 0.03 | inactive: 0.097 | inactive: 0.017 | inactive: -0.006 |
| SNRNP27 (UniProt Q8WVK2) | inactive: 0.022 | inactive: -0.015 | inactive: -0.034 | inactive: -0.043 | inactive: -0.024 | inactive: -0.008 | inactive: -0.003 | inactive: 0.06 | inactive: 0.038 | inactive: -0.025 |
| SLK isoform 2 (UniProt Q9H2G2) | active: -0.314 | inactive: -0.042 | inactive: -0.058 | inactive: -0.014 | inactive: 0.048 | inactive: 0.006 | inactive: 0.074 | inactive: 0.124 | inactive: 0.009 | inactive: -0.044 |
| SMN1 (UniProt Q16637) | inactive: 0 | inactive: 0.077 | inactive: 0.215 | inactive: 0.107 | inactive: -0.071 | inactive: -0.076 | inactive: 0.03 | inactive: 0.234 | inactive: 0.261 | inactive: -0.019 |
| SMIM8 (UniProt Q96KF7) | inactive: -0.009 | inactive: 0.007 | inactive: 0.061 | inactive: -0.001 | inactive: 0.016 | inactive: -0.129 | inactive: -0.014 | inactive: 0.036 | inactive: -0.048 | inactive: -0.153 |
| SMPD2 (UniProt O60906) | inactive: -0.06 | inactive: -0.01 | inactive: -0.052 | inactive: -0.014 | inactive: 0.094 | inactive: 0.062 | inactive: -0.013 | inactive: -0.017 | inactive: -0.093 | inactive: -0.121 |
| SPAG7 (UniProt O75391) | inactive: 0.034 | inactive: 0.019 | inactive: -0.023 | inactive: 0.009 | inactive: -0.001 | inactive: -0.016 | inactive: 0.011 | inactive: 0.01 | inactive: -0.049 | inactive: -0.031 |
| SNX3 (UniProt O60493) | inactive: -0.014 | inactive: -0.241 | inactive: -0.19 | inactive: -0.001 | inactive: 0.025 | inactive: 0.105 | inactive: 0.048 | inactive: 0.132 | inactive: -0.037 | inactive: -0.116 |
| SNRNP70 (UniProt P08621) | inactive: -0.042 | inactive: 0.005 | inactive: 0.27 | inactive: 0.018 | inactive: -0.055 | inactive: -0.025 | inactive: -0.079 | inactive: 0.154 | inactive: 0.154 | inactive: -0.179 |
| SMU1 (UniProt Q2TAY7) | inactive: 0.022 | inactive: -0.054 | inactive: 0.004 | inactive: 0.047 | inactive: -0.026 | inactive: -0.034 | inactive: -0.016 | inactive: 0.049 | inactive: 0.01 | inactive: -0.023 |
| SMAGP (UniProt Q0VAQ4) | inactive: -0.044 | inactive: 0.319 | inactive: 0.419 |  | inactive: -0.129 |  | inactive: 0.036 | inactive: 0.414 | inactive: -0.048 | inactive: 0.002 |
| SON isoform 9 (UniProt P18583) | inactive: 0.033 | inactive: -0.047 |  | inactive: 0.032 | inactive: -0.097 | inactive: 0.065 | inactive: -0.095 |  | inactive: 0.128 | inactive: 0.158 |
| SMARCA1 (UniProt P28370) | inactive: -0.055 | inactive: -0.307 | inactive: -0.085 | inactive: -0.232 | inactive: 0.101 | inactive: 0.029 | inactive: 0.036 | inactive: 0.027 | inactive: 0.007 | inactive: -0.073 |
| SNX14 (UniProt Q9Y5W7) | inactive: 0.001 | inactive: -0.064 | inactive: 0.132 | inactive: 0.058 | inactive: 0.071 |  | inactive: 0.043 | inactive: 0.061 | inactive: 0.056 | inactive: 0.029 |
| SMAP2 (UniProt Q8WU79) | inactive: -0.013 | inactive: 0.024 | inactive: -0.043 | inactive: -0.069 | inactive: -0.01 | inactive: 0.002 | inactive: 0.056 | inactive: 0.06 | inactive: -0.122 | inactive: -0.028 |

Laid out differently: results already given.
Target,log2 fold change [1],log2 fold change [2],log2 fold change [3],log2 fold change [4],log2 fold change (entinostat),log2 fold change (vorinostat),log2 fold change (citarinostat),log2 fold change (silmitasertib),log2 fold change [5],log2 fold change [6]
SNRNP200 (UniProt O75643),inactive: 0.017,inactive: -0.029,inactive: 0.01,inactive: -0.026,inactive: -0.051,inactive: -0.056,inactive: -0.025,inactive: 0.081,inactive: 0.041,inactive: -0.063
SNRNP70 (UniProt P08621),inactive: -0.042,inactive: 0.005,inactive: 0.27,inactive: 0.018,inactive: -0.055,inactive: -0.025,inactive: -0.079,inactive: 0.154,inactive: 0.154,inactive: -0.179
